The test can be described thus: qHTS Assay for Lipid Storage Modulators in Drosophila S3 Cells.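 As to cell number change: cells counted by Cell Tracker Red CMTPX staining in the red channel.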 The following applies: BODIPY lipid droplet fluorescence, 18-24 h; for cell number change: measured here: cell count max response, cells fed with added oleic acid. In outline:
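Laser-scanning cytometry quantifies lipid droplet accumulation (500–530 nm total intensity; droplet/cell object ratio) in oleic acid-fed (400 uM added) Drosophila S3 cells treated with a concentration series. 20 uM Triacsin C defined 100% inhibition.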

[1] abbreviates: measured here: cell number channel AC50, cells fed with added oleic acid.
The mark [2] stands for this setting: measured here: lipid fluorescence (Fed channel) AC50, cells fed with added oleic acid.

This is one part of the list. These are further read-outs of the screen, such as a control signal, another cell line or another target. No call is given for them. Most of these compounds were active or inconclusive in the main read-out, so they are no random draw. Potencies come from curve fits of mixed quality, noted in brackets.

By AC50 is commonly meant the midpoint of the concentration-response curve, whichever way the signal moves. Low values mean activity at low concentration, high ones activity only at high concentration. With `CN=CC1=C(O)CC(C)(C)CC1=O`, the cell number change was -39.5%. Under setting [1], the AC50 is 32.6 µM [falling, single point]. The AC50 under setting [2] is 29.1 µM [falling, single point].
In the case of `CC(OC(=O)/C=C/c1ccco1)C(=O)NC1CCCCC1C` (configuration not stated), the cell number change is -12.4%. The AC50 under setting [2] is 1.46 µM [falling, full curve].
For the molecule `CC(C)COC(=O)/C(C#N)=C/c1cn(Cc2ccccc2)c2ccccc12`, the cell number change was -27.6%. Also, under setting [2], the AC50 was 18.4 µM [falling, single point].
As for `CC1(C)C(=O)OC(c2cccn2-c2ccc([N+](=O)[O-])cc2)C2(CCCCC2)C1=O` (configuration not stated), the cell number change turned out to be 0.663%. Moreover, the concentration at half-maximal activity (AC50) under setting [2] is 0.731 µM [falling, single point].
Turning to `O=C(CSc1ccc(-c2ccccn2)nn1)N1CCCc2ccccc21`, the cell number change was 14.5%. The half-maximal activity concentration (AC50) under setting [2] is 1.16 µM [rising, single point].
`O=C(O)CCCNc1cc(N2CCC3(CC2)OCCO3)c2noc3c2c1C(=O)c1ccccc1-3`: the cell number change was 17.1%.
The same measure, in the same setting: in the case of `Cc1c(OC(C)C(=O)O)ccc2c3c(c(=O)oc12)CCCC3` (configuration not stated) it was 18%.
Turning to `CCOC(=O)N1CCN(C(=O)c2ccc(S(=O)(=O)Nc3cccc(C(F)(F)F)c3)cc2)CC1`, the cell number change is 107%. In addition, the half-maximal activity concentration (AC50) under setting [1] was 20.6 µM [rising, partial curve].
For the molecule `CCC(C)[C@H](NC(=O)N1CCCCC1)C(=O)OC` (some centres not stated), the cell number change was -41.5%. Also, under setting [1], the half-maximal activity concentration (AC50) was 1.3 µM [falling, full curve]. In addition, the AC50 under setting [2] was 1.64 µM [falling, full curve].
For the molecule `CON(C)S(=O)(=O)NC(=O)C1=C(N2CCCC2)COC1=O`, the cell number change came to 28.1%. Further, the half-maximal activity concentration (AC50) under setting [1] was 0.0146 µM [falling, full curve, poor fit]. Also, the half-maximal activity concentration (AC50) under setting [2] was 10.3 µM [rising, single point].
As for `COc1ccccc1CNc1nc(=S)[nH]c2cc(OC)c(OC)cc12`, the cell number change came out at 24.8%.
For `CS(=O)(=O)c1ccc(C(=O)Nc2ccc(-c3nc4ccccc4[nH]3)cc2)cc1`, the cell number change was determined as 37.6%. For the same molecule, the AC50 under setting [1] is 20.6 µM [rising, single point]. Also, under setting [2], the concentration at half-maximal activity (AC50) is 16.4 µM [rising, single point].
For `Cc1cc(NC(=O)Cn2c(=O)n(Cc3ccccc3)c(=O)c3ccccc32)no1`, the AC50 under setting [2] is 4.11 µM [falling, full curve, poor fit].
For the molecule `Cc1ccc(-c2cc(C(=O)N3CCN(c4ccccc4O)CC3)c3ccccc3n2)o1`, the cell number change is -18.1%. In addition, under setting [2], the AC50 is 29.1 µM [rising, single point].
With `CC(C)OC(=O)CSc1nc2cccnc2n1-c1ccc(F)cc1`, the cell number change was -10.4%. The AC50 under setting [2] is 2.91 µM [rising, single point].
As to `CCOc1ccccc1NC(=O)N1CCCC(c2nc3c(nnn3Cc3ccc(C)cc3)c(=O)[nH]2)C1` (configuration not stated), the cell number change was -12.6%. In addition, under setting [2], the half-maximal activity concentration (AC50) is 20.6 µM [rising, single point].

The values above are taken from PubChem BioAssay AID2685 (National Center for Advancing Translational Sciences (NCATS), 2010).
